This is an account of results in publication PMC10163288.

B1: il10ra_site1_normal_mot_HHH_b1_03260_000000175_0001_42_57_H_._HHH_b2_04884_0001_0000400027_0000001_1 (protein)
chain: SSSSSEIEEYVRLALRFAEQLQETGDEEAVKSYLRAAEEIAKQNNDEEAEELVEEVKEKLSSSSS
B2: il10ra_site1_normal_mot_HHH_b2_02354_af2_000000157_0001_40_56_H_._HHH_b1_03438_0001_0000500041_0000001_0_af2pred_0001 (protein)
chain: SSSSSRKELLRKEFELILRLLKELNDEEAVRRVEELLEQAEEEGDPRYLKEALELAREAGSSSSS
B3: il10ra_site1_normal_mot_HHH_b2_04001_000000102_0001_19_36_H_._HHH_b2_05818_af2_0001_0000400011_0000001_0 (protein)
chain: SSSSDEEEVKERVEELLEEAEKIEDRQEVARLFIEALELAFRARDDELLREIWKVFKELTSSSSS
B4: il10ra_site1_normal_mot_HHH_b1_01886_000000262_0001_1_18_H_._HHH_b1_06187_0001_0000300020_0000002_0 (protein)
chain: SSSSTLEWSVRFALRAARLLRERGNPEQAEELLEKLLELLEETGDEELFEEVERLLEELRKSSSS
B5: il10ra_site1_normal_mot_HHH_b1_05357_000000034_0001_23_39_H_._HHH_b1_04597_0001_0000400041_0000001_0_af2pred_0001 (protein)
chain: SSSSSDEEEVERLLREAQEALENGNPHEASYLLIRAFAIAVRNRNPELRRLVEEAAKRLHSSSSS
B6: il10ra_site1_normal_mot_HHH_b1_00992_000000182_0001_23_40_H_._HHH_b1_05623_0001_0000100002_0000001_0_af2pred_0001 (protein)
chain: SSSSDEEERRLRLILELAELLIEQGDEEAARRLLEAAAELAERNNDEEILEEVERLLKELSSSSS
B7: il10ra_site1_sap_23_mot_HHH_b1_06816_000000239_0001_1_19_H_._HHH_b2_02057_af2_0001_0000500016_0000001_0_0001 (protein)
chain: SSSSSDEFNELILKIEELLYNGNPEEARELVEEMEELVKELGDPELEEYLKILKHFVEAQSSSSS
B8: il10ra_site1_normal_mot_HHH_b2_05323_000000159_0001_1_18_H_._HHH_b2_02074_af2_0001_0000500025_0000001_0 (protein)
chain: SSSSSSSEALEISREAFRAALRGDEEKARELLEEAEELAQEEGDERIERAVEDLLKALGSSSSSS
B9: il10ra_site1_normal_mot_HHH_b1_02708_af2_000000019_0001_23_39_H_._HHH_b2_02879_af2_0001_0000300013_0000001_0_af2pred_0001 (protein)
chain: SSSSNEEQRVSELLFRVVKLYADGNPEEAEKVLEEAKRLAEELGDEELERAVEIARRFVESSSSS
B10: il10ra_site1_normal_mot_HHH_b2_01999_000000006_0001_1_18_H_._HHH_b1_02563_af2_0001_0000800023_0000001_0 (protein)
chain: SSSSSSDIAELVAEAVVLATRLNDDEVFQELYELFREYIEEGDPRIEERVEELLEELRSSSSSSS
B11: il10ra_site1_sap_12_mot_HHH_b1_06789_af2_000000041_0001_1_20_H_._HHH_b1_04518_af2_0001_0000300005_0000001_0_0001 (protein)
chain: SSSSDEEEERLRELLEELEELVEEGDLERFAKVAQEALRFAFQLGDEEVLQRLFELVELIASSSS
B12: il10ra_site1_normal_mot_HHH_b1_04100_af2_000000180_0001_1_19_H_._HHH_b2_02775_0001_0000300018_0000001_0 (protein)
chain: SSSSSSDEERYVELALRFAKLVEDEEALRFLLEAAEQIARQANNEELEEAVEKVKEELSSSSSSS
B13: il10ra_site1_normal_mot_HHH_b1_07641_af2_000000285_0001_1_21_H_._HHH_b2_04382_af2_0001_0000200018_0000001_0_af2pred_0001 (protein)
chain: SSSSSEEAKEALELLKEALEARERGNPEEAREIAEEALRVAEEGGNKLLVLIIRFLLKQLSSSSS
B14: il10ra_site1_normal_mot_HHH_b2_07938_000000207_0001_42_56_H_._HHH_b2_03378_0001_0000600036_0000002_0 (protein)
chain: SSSSSREEAARTAAREIEELLEEGDEEEFKRLLRMLEIQVRLSRDEKAREVLEELRERLNSSSSS
B15: il10ra_site1_normal_mot_2c1a291787c6f40772924d4e9068d803_0001_af2_000000187_0001_34_48_H_._HHH_b2_03753_af2_0001_0000500015_0000001_0 (protein)
chain: SSSSDVERRVFELRAEAYLLFQQGNEEEAKELAEEAKELAEEEGDEALLLAVEKFQEWLRSSSSS
B16: il10ra_site1_sap_12_mot_HHH_b1_08040_000000016_0001_20_35_H_._HHH_b1_08008_0001_0000100004_0000001_0_0001_af2pred_0001 (protein)
chain: SSSSSSEVEELIREAEEAAEEQGDEEAVNMLEAIRLLAELGVLSEKVAEASARKLLMELGSSSSS
B17: il10ra_site1_normal_mot_HHH_b1_05083_af2_000000148_0001_42_57_H_._HHH_b1_02547_af2_0001_0000100005_0000002_0 (protein)
chain: SSSSSEEEEELHRLLRELAELAHEGDEEEVKELTREVEELAKELGNPLIAYQARWLLRRLSSSSS
B18: il10ra_site1_normal_mot_HHH_b1_05370_000000138_0001_1_16_H_._HHH_b2_05772_af2_0001_0000100001_0000001_0 (protein)
chain: SSSSSDELYKIAKEAIEEAVRLFREGNPEEAKEILEEALEKVEENNNEALAWALEHLLRVLSSSS
B19: il10ra_site1_sap_22_mot_HHH_b2_04327_000000030_0001_41_55_H_._HHH_b2_00587_0001_0000200015_0000001_0_0001 (protein)
chain: SSSSDQEEELAKALHELIKQALEWGDEELARMMLEALEMLAEELNDPELRELVEELEERLDSSSS
B20: il10ra_site1_normal_mot_HHH_b2_00984_000000042_0001_1_20_H_._HHH_b2_06653_0001_0000300025_0000002_0 (protein)
chain: SSSSDEEEVERRIEELLEEAREIEDEEEVSELLLEALQLAIQLGDPELLKEIWEVIKELLSSSSS
B21: il10ra_site1_sap_10_mot_HHH_b1_06789_af2_000000041_0001_1_20_H_._HHH_b2_05652_0001_0000400032_0000001_0_0001 (protein)
chain: SSSSDERYEFVKEIIKEVIELLREGDPEEARRLLEEAREFVEEFNDIAARFSLEHLLRILDSSSS
B22: il10ra_site1_sap_16_mot_HHH_b1_03230_000000248_0001_1_19_H_._HHH_b1_07999_0001_0000300027_0000001_0_0001_af2pred_dldesign_0_af2pred (protein)
chain: SSSSSDPKALNEEVVRLIREALEVDPERAAELLARARELAEKANSPIMLAAVEAAERALSSSSSS
B23: il10ra_site1_sap_13_mot_HHH_b1_05357_000000034_0001_23_39_H_._HHH_b1_06277_0001_0000200012_0000001_0_0001 (protein)
chain: SSSSNDEALEISQRAFHAALRGDYEEAEELLEEALELAREAGNEQLAEQIERLLEVVRREGSSSS
B24: il10ra_site1_sap_17_mot_HHH_b2_02537_000000065_0001_1_20_H_._HHH_b1_01262_af2_0001_0000300010_0000002_0_0001_af2pred_dldesign_0_af2pred (protein)
chain: SSSSSSEDRLLEATLRFAREAAAAGRLDSARLHLDYALEVAKERKDEELLAEIEALLAELSSSSS

The list shows a part of the results.

For the assay, the target named is il10ra, Q13651. Description: yeast display titration.
For B1, the “apparent Kd” value is “inactive: no binding seen”.
The same measure for B2: “inactive: no binding seen”; for B3: “inactive: no binding seen”; for B4: “inactive: no binding seen”.
The value for B5 was “inactive: no binding seen”; that for B6 was “inactive: no binding seen”; that for B7 was “inactive: no binding seen”.
The same measure for B8: “inactive: no binding seen”; for B9: “inactive: no binding seen”; for B10: “inactive: no binding seen”.
Consider B11, for which the “apparent Kd” value is “inactive: no binding seen”.
The value for B12 was “inactive: no binding seen”.
As to B13, the “apparent Kd” value is “inactive: no binding seen”.
The value for B14 was “inactive: no binding seen”; that for B15 was “inactive: no binding seen”.
Consider B16, for which the “apparent Kd” value is “inactive: no binding seen”.
Turning to B17, the “apparent Kd” value was “inactive: no binding seen”.
The same measure for B18: “inactive: no binding seen”; for B19: “inactive: no binding seen”.
The value for B20 was “inactive: no binding seen”; that for B21 was “inactive: no binding seen”; that for B22 was “inactive: no binding seen”.
The value for B23 was “inactive: no binding seen”; that for B24 was “inactive: no binding seen”.
